PubChem BioAssay AID743121 | NCATS | 2013
Here is a random part of about 26,000 reagents tested. Over the whole deposit, 167 (0.63%) were called active. 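Calls are per gene from RSA p-values that are not deposited; an individual active-marked siRNA can sensitise only weakly.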 Reagents against one gene are numbered here.

- Aim: 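Knock-downs that sensitise breast cancer cells to camptothecin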 (primary screen)
- Cell system: MDA-MB-231 cells, a human breast cancer line
- Knock-down reagent: single siRNA against human genes, 20 nM siRNA (0.8 pmol per well)
- Timing: 120 h (drug added 48 h after transfection, read 72 h later)
- Conditions: camptothecin 20 nM (about EC30) for 72 h; vehicle 0.1% DMSO in parallel plates
- Measurement: 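Cell viability by ATP luminescence (CellTiter-Glo) as % of non-targeting siRNA wells, and the log2 ratio of viability without drug over viability with camptothecin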
- Reading the numbers: log2 vehicle/camptothecin viability: higher = stronger sensitisation to camptothecin; viability with camptothecin and viability without drug: higher = more viable cells
- Rule for the call: 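Each gene scored by redundant siRNA activity (RSA) over its individual siRNA ratios; a gene is called active at p < 0.001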

| Gene | reagent no. | log2 vehicle/camptothecin viability | viability with camptothecin (% of control) | viability without drug (% of control) | Call |
| --- | --- | --- | --- | --- | --- |
| TEK | 1 | -0.173 | 88.4 | 78.4 | inactive |
| TEK | 2 | -0.748 | 70.3 | 41.8 | inactive |
| TEK | 3 | -0.115 | 127 | 117 | inactive |
| TEK | 4 | 0.00224 | 69 | 69.1 | inactive |
| OTX1 | 1 | -0.17 | 76.3 | 67.8 | inactive |
| OTX1 | 2 | -0.567 | 67.1 | 45.3 | inactive |
| OTX1 | 3 | 0.188 | 73 | 83.2 | inactive |
| OTX1 | 4 | -0.341 | 78.2 | 61.8 | inactive |
| NCCRP1 | 1 | 0.287 | 65.1 | 79.4 | inactive |
| NCCRP1 | 2 | 0.105 | 88.7 | 95.4 | inactive |
| NCCRP1 | 3 | -0.111 | 97.2 | 90 | inactive |
| NCCRP1 | 4 | -0.279 | 107 | 88 | inactive |
| POU2F1 | 1 | 0.142 | 44.4 | 49 | inactive |
| POU2F1 | 2 | 0.409 | 75.2 | 99.9 | inactive |
| POU2F1 | 3 | 0.106 | 86 | 92.5 | inactive |
| MYOD1 | 1 | -0.467 | 95.4 | 69 | inactive |
| MYOD1 | 2 | -1.16 | 81.9 | 36.8 | inactive |
| MYOD1 | 3 | -0.148 | 96.9 | 87.4 | inactive |
| MYOD1 | 4 | -0.0913 | 104 | 97.5 | inactive |
| ILKAP | 1 | -0.0586 | 107 | 103 | inactive |
| ILKAP | 2 | 0.251 | 41 | 48.8 | inactive |
| ILKAP | 3 | -0.181 | 85.6 | 75.5 | inactive |
| ILKAP | 4 | -0.396 | 82.7 | 62.9 | inactive |
| TNFAIP8 | 1 | -0.516 | 47.4 | 33.2 | inactive |
| TNFAIP8 | 2 | -0.0766 | 93.1 | 88.2 | inactive |
| TNFAIP8 | 3 | -0.216 | 115 | 98.6 | inactive |
| TNFAIP8 | 4 | 0.211 | 78.3 | 90.7 | inactive |
| SHARPIN | 1 | -0.00376 | 79.8 | 79.5 | inactive |
| SHARPIN | 2 | -0.485 | 90 | 64.3 | inactive |
| SHARPIN | 3 | 0.268 | 42.5 | 51.2 | inactive |
| SHARPIN | 4 | -0.221 | 81 | 69.5 | inactive |
| TBXAS1 | 1 | -0.454 | 72.6 | 53 | inactive |
| TBXAS1 | 2 | -0.0505 | 84.2 | 81.4 | inactive |
| TBXAS1 | 3 | -0.387 | 44.6 | 34.1 | inactive |
| TBXAS1 | 4 | -0.247 | 96.3 | 81.1 | inactive |
| MATN3 | 1 | 0.0552 | 22.7 | 23.6 | inactive |
| MATN3 | 2 | 0.0414 | 84.7 | 87.2 | inactive |
| MATN3 | 3 | -0.0964 | 107 | 100 | inactive |
| FMO4 | 1 | -0.452 | 52.1 | 38 | inactive |
| FMO4 | 2 | -0.264 | 65.7 | 54.7 | inactive |
| FMO4 | 3 | -0.344 | 50.8 | 40 | inactive |
| FMO4 | 4 | -0.349 | 87.8 | 68.9 | inactive |
| BLM | 1 | -0.0275 | 52.1 | 51.1 | inactive |
| BLM | 2 | 0.108 | 91.5 | 98.7 | inactive |
| BLM | 3 | -2.64 | 89.4 | 14.3 | inactive |
| OR1F1 | 1 | -0.177 | 72.7 | 64.3 | inactive |
| OR1F1 | 2 | -0.131 | 53.1 | 48.5 | inactive |
| OR1F1 | 3 | 0.135 | 49.8 | 54.7 | inactive |
| OR1F1 | 4 | 0.48 | 34 | 47.4 | inactive |
| TXNDC8 | 1 | -0.234 | 91.8 | 78 | inactive |
| TXNDC8 | 2 | -0.155 | 83.4 | 74.9 | inactive |
| TXNDC8 | 3 | -0.142 | 95.1 | 86.1 | inactive |
| TXNDC8 | 4 | -0.394 | 68.3 | 52 | inactive |
| MAST4 | 1 | -0.262 | 82.3 | 68.6 | inactive |
| MAST4 | 2 | 0.452 | 54.9 | 75.1 | inactive |
| MAST4 | 3 | -0.134 | 99.7 | 90.8 | inactive |
| MAST4 | 4 | -0.327 | 94.4 | 75.3 | inactive |
| MAST4 | 5 | -0.238 | 69 | 58.5 | inactive |
| MAST4 | 6 | 0.011 | 84.8 | 85.4 | inactive |
| MAST4 | 7 | 0.137 | 76.1 | 83.7 | inactive |
| MAST4 | 8 | -0.38 | 58.9 | 45.2 | inactive |
| INSRR | 1 | 0.321 | 68.5 | 85.6 | inactive |
| INSRR | 2 | -0.68 | 83.1 | 51.8 | inactive |
| INSRR | 3 | -0.237 | 54.6 | 46.3 | inactive |
| INSRR | 4 | -0.215 | 87 | 74.9 | inactive |
| CASP5 | 1 | -0.0107 | 61.3 | 60.8 | inactive |
| CASP5 | 2 | 0.0226 | 87 | 88.4 | inactive |
| CASP5 | 3 | -0.449 | 93.8 | 68.7 | inactive |
| CASP5 | 4 | 0.177 | 61.1 | 69 | inactive |
